Paper PMC6504903
No constants are given. Whether binding was seen depends on the method and setting. For some assays here: Binding seen in cells or lysates may run through a third protein. Some results given as binding are weak or reduced against the parent protein; the word gives no strength. Sequences can lack the tags named with a protein.

T1: Bbp1 fused to the Gal4-binding domain (BD) (budding yeast), Q12365
T1 chain: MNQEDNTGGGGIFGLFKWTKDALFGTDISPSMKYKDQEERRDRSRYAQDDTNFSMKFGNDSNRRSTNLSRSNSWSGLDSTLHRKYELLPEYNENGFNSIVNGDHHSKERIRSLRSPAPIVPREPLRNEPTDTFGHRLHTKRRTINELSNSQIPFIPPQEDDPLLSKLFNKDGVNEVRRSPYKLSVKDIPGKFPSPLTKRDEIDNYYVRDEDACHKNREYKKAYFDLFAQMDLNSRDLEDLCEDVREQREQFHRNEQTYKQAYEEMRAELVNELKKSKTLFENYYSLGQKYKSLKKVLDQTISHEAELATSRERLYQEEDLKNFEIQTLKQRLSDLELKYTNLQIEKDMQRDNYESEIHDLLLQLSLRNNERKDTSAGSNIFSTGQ

T2: Bbp1 fused to the Gal4-binding domain (BD) (budding yeast) (UniProt Q12365)
T2 sequence: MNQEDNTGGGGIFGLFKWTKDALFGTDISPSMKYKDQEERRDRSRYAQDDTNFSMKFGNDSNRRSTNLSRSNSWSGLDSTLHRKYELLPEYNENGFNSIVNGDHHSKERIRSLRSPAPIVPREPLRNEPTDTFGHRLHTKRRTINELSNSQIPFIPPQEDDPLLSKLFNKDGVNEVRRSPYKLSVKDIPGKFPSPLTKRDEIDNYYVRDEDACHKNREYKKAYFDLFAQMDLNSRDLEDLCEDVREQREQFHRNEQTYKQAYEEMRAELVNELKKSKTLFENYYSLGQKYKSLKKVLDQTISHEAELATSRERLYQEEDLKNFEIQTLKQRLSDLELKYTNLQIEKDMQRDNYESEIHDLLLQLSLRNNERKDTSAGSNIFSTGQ

T3: GFP11-mCherry-Mps2 (budding yeast), P53159
T3 chain: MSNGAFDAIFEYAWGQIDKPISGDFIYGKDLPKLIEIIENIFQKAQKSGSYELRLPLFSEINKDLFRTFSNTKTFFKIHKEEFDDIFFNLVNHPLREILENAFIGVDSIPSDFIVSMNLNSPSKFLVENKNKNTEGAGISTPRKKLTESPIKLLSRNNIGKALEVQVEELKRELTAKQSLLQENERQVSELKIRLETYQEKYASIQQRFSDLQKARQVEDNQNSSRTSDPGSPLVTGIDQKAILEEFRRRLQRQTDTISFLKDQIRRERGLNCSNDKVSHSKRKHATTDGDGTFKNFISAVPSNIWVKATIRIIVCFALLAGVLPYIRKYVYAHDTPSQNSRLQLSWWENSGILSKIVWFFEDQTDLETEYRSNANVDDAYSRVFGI

T4: GFP11-mCherry-Mps2 (budding yeast) (UniProt P53159)
T4 sequence: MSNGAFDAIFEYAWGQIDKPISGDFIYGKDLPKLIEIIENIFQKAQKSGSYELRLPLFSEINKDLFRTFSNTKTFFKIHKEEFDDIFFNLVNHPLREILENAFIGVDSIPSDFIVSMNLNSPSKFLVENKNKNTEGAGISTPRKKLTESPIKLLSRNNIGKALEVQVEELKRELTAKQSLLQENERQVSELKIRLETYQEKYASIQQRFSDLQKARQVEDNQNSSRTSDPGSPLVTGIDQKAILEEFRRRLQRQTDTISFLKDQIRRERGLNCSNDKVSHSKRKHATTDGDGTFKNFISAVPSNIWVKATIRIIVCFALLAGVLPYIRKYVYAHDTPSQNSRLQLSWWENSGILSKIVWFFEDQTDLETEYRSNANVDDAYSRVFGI

T5: mCherry-Mps2-GFP11 (budding yeast) (UniProt P53159)
T5 sequence: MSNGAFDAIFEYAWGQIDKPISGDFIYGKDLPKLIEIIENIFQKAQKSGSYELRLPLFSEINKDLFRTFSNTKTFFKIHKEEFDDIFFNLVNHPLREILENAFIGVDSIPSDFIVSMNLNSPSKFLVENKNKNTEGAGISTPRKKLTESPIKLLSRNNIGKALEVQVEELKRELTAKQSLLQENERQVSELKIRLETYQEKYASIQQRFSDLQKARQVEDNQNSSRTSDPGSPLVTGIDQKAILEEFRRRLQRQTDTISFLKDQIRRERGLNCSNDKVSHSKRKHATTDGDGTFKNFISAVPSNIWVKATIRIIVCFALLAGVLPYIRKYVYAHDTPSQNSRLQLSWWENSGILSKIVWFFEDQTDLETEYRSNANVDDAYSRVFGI


Key:
[1] = biological target: T1, Bbp1 fused to the Gal4-binding domain …; assay: two-hybrid; Gal4 BD-Bbp1 with Gal4 AD fusions from low-copy centromeric plasmids (ADH1 promoter); HIS3 reporter, 10-fold serial dilutions on SD-Leu-Trp-His with 25 mM 3AT, 30°C, 4 d; in wild-type (SLJ1644), pom152Δ (SLJ12623) and pom152Δ mps2Δ (SLJ12624) strains; conditions: remark: other sources report otherwise
[2] = biological target: T2, Bbp1 fused to the Gal4-binding domain (BD) (budding yeast); assay: as above
[3] = biological target: T3, GFP11-mCherry-Mps2 (budding yeast), …; assay: split reporter; split-GFP (GFP1-10 and GFP11) in fixed yeast cells read by SIM at the SPB; the Mps2-Mps3 pairs also by three-colour imaging with Spc110-mT2; conditions: remark: other sources report otherwise
[4] = biological target: T4, GFP11-mCherry-Mps2 (budding yeast); assay: as above
[5] = biological target: T5, mCherry-Mps2-GFP11 (budding yeast); assay: as above

Binder	binding [4]	other results
Ndc1 fused to the Gal4 activation domain (AD), P32500 1-655 (protein) MIQTPRELLNPRYTYHTIFSDVCKTRFNHLVTRLFFICSIIQTVVISLLALPHSPLWELALAFIPNILALNLVSLLIIVTRKNYMHVKNFGFANSLTFILGQLLSVKFLVYQGVYSMGSILLSFVLGVVFGRGGSGWKPYYKLFIWLVVPTIYNLQHHVTDADKLSFNCENFFQAPQDYVLERVKRIMEKSVILSVISMFVLPIFTTVFFSRQKSGLFDSFTNGVLAVTNLLIISCIIFITFEFINIAFDAHMSIGCLHKGKLISNLSSTPMETLLSGLSADKPFTRLTAYQELAYRATSLDPSLRAPIYHSKFRSSSGNTWSLILNECLKTIQINNEKVVQYLRSVQDLGGSATARHKKKVENLDYMYENGKLTSANERLFGNRPSMMAPLRDNGLLDESPNRLRVRTDDSVLLNRGNKKRHRSSYYDNDLDETTQTFNGSIFTHETTFMTAMRLMLKKLKNSIMSFIFPSYAERQSSDESDNYRLLPNGSNKAQISIIDIWSISKKRQAEKLVPLPICHANSVVALTGLLIRSKTEDPKGGIIASVGDILKTLERSICALGEFADWDPESMAYTAFQTQRTAQDRVQQDSEDEDSMKDTTDMISVLYQLSTSAFMEIVLEYNVALNDVYLDADVAKLANWFLEVYASGNPNAT		binding [1]: binds
Spc29 fused to the Gal4 activation domain (AD) (protein, UniProt P33419 1-253) MDYSNFGNSASKKFQDDTLNRVRKEHEEALKKLREENFSSNTSELGNKKHYRAQERMSSPLHRLSPTGKSDDRKVKSPLDDKLRRQLREGNTRLPPPPFSSYGMPPTNRSNLDRIRRRTSSPVRTDKFASQNVIDDQRLEIKYLERIVYDQGTVIDNLTSRITRLESFILNSISDRGDKNFASLEHSRSFSGFPTNKTYGLQMGGLYENDMPYRRSSDNINKEGAREDRSSQIHIENESTEDILKILSSSFHN		binding [2]: binds
Ndc1-GFP_(1–10), P32500 1-655 (protein) MIQTPRELLNPRYTYHTIFSDVCKTRFNHLVTRLFFICSIIQTVVISLLALPHSPLWELALAFIPNILALNLVSLLIIVTRKNYMHVKNFGFANSLTFILGQLLSVKFLVYQGVYSMGSILLSFVLGVVFGRGGSGWKPYYKLFIWLVVPTIYNLQHHVTDADKLSFNCENFFQAPQDYVLERVKRIMEKSVILSVISMFVLPIFTTVFFSRQKSGLFDSFTNGVLAVTNLLIISCIIFITFEFINIAFDAHMSIGCLHKGKLISNLSSTPMETLLSGLSADKPFTRLTAYQELAYRATSLDPSLRAPIYHSKFRSSSGNTWSLILNECLKTIQINNEKVVQYLRSVQDLGGSATARHKKKVENLDYMYENGKLTSANERLFGNRPSMMAPLRDNGLLDESPNRLRVRTDDSVLLNRGNKKRHRSSYYDNDLDETTQTFNGSIFTHETTFMTAMRLMLKKLKNSIMSFIFPSYAERQSSDESDNYRLLPNGSNKAQISIIDIWSISKKRQAEKLVPLPICHANSVVALTGLLIRSKTEDPKGGIIASVGDILKTLERSICALGEFADWDPESMAYTAFQTQRTAQDRVQQDSEDEDSMKDTTDMISVLYQLSTSAFMEIVLEYNVALNDVYLDADVAKLANWFLEVYASGNPNAT		binding [3]: binds
Nbp1-GFP_(1–10) (protein, UniProt P52919 1-319) MLKSVQGLWKDFFGIRDDGRKREYGSLDEVRKRSALRSRRKQMRPTGKSVLKRPRKVTDRKTEEKIRTNRRKTPKRRLTKIFQTIRDVFSNDNENMSKMQNVCGDMTRILKKRSQGRPSYMDTDTAKSRILRSDAFKRKISELKYNKQRISELRSGSSDGSSGKDRNQSLYLDREILLQRQIKKRDEKIKALESKLQSLQEALNYSNEKYRILEDLLDSSNIHPSYTKSRRTMSNLARENDEIKPLKIDLSPSPIRRTNSLFTSSPMKTYNRDGNIPEMQPLQENISPACPTPPYRSRETEKEDETLSPISVDFSSYLS	binds	
Bbp1-GFP_(1–10) (protein, UniProt Q12365 1-385) MNQEDNTGGGGIFGLFKWTKDALFGTDISPSMKYKDQEERRDRSRYAQDDTNFSMKFGNDSNRRSTNLSRSNSWSGLDSTLHRKYELLPEYNENGFNSIVNGDHHSKERIRSLRSPAPIVPREPLRNEPTDTFGHRLHTKRRTINELSNSQIPFIPPQEDDPLLSKLFNKDGVNEVRRSPYKLSVKDIPGKFPSPLTKRDEIDNYYVRDEDACHKNREYKKAYFDLFAQMDLNSRDLEDLCEDVREQREQFHRNEQTYKQAYEEMRAELVNELKKSKTLFENYYSLGQKYKSLKKVLDQTISHEAELATSRERLYQEEDLKNFEIQTLKQRLSDLELKYTNLQIEKDMQRDNYESEIHDLLLQLSLRNNERKDTSAGSNIFSTGQ	binds	
Mps3-GFP_(1–10) (protein, UniProt P47069 1-682) MNNSNEHRREEAGAANEQMPYNKAVKSAYADVLKDKMNREQEISLRAIKKGIYTDGGETDNYDMDKENDSAYEMFKKNLDFPLDQHNDDDDDDPYIEDNGQETDGYSDEDYTDEADKSFIEDSDSDSYDLESNSDFEENLESSGEAKKLKWRTYIFYGGLFFVFYFFGSFLMTTVKNNDLESHSSGATSSPGKSFSNLQKQVNHLYSELSKRDEKHSSELDKTVKIIVSQFEKNIKRLLPSNLVNFENDINSLTKQVETISTSMSELQRRNHKFTVENVTQWQDQLVKQLDTHLPQEIPVVINNSSSLLIIPELHNYLSALISDVIESPGIGTAGSAESRWEYDLNRYVKEILSNELQYIDKDYFIQEMNRRLQSNKQEIWEEITNRLETQQQQQQQQVQQDYSNVPQQYSSILMKRLIHQIYNSNQHQWEDDLDFATYVQGTKLLNHLTSPTWRQGSGVQPIELLTDSKQSSSTYWQCENEPGCSWAIRFKTPLYLTKISYMHGRFTNNLHIMNSAPRLISLYVKLSQTKEIKALQTLANQYGFGQHHKRDRNYIKIAKFEYRLTDSRIRQQMYLPPWFIQLKPLVRSIVFQVDENYGNKKFISLRKFIINGVTPQDLQIIENNEFPVLLGDTPEYGVTQNTDEGKRKVLLSKPPYASSSTSTKFHPASNVPSFGQDELDQ		binding [5]: binds
GFP_(1–10)-Mps3 (protein, UniProt P47069 1-682) MNNSNEHRREEAGAANEQMPYNKAVKSAYADVLKDKMNREQEISLRAIKKGIYTDGGETDNYDMDKENDSAYEMFKKNLDFPLDQHNDDDDDDPYIEDNGQETDGYSDEDYTDEADKSFIEDSDSDSYDLESNSDFEENLESSGEAKKLKWRTYIFYGGLFFVFYFFGSFLMTTVKNNDLESHSSGATSSPGKSFSNLQKQVNHLYSELSKRDEKHSSELDKTVKIIVSQFEKNIKRLLPSNLVNFENDINSLTKQVETISTSMSELQRRNHKFTVENVTQWQDQLVKQLDTHLPQEIPVVINNSSSLLIIPELHNYLSALISDVIESPGIGTAGSAESRWEYDLNRYVKEILSNELQYIDKDYFIQEMNRRLQSNKQEIWEEITNRLETQQQQQQQQVQQDYSNVPQQYSSILMKRLIHQIYNSNQHQWEDDLDFATYVQGTKLLNHLTSPTWRQGSGVQPIELLTDSKQSSSTYWQCENEPGCSWAIRFKTPLYLTKISYMHGRFTNNLHIMNSAPRLISLYVKLSQTKEIKALQTLANQYGFGQHHKRDRNYIKIAKFEYRLTDSRIRQQMYLPPWFIQLKPLVRSIVFQVDENYGNKKFISLRKFIINGVTPQDLQIIENNEFPVLLGDTPEYGVTQNTDEGKRKVLLSKPPYASSSTSTKFHPASNVPSFGQDELDQ	binds	
Heh2-GFP_(1–10) (protein, UniProt Q03281 1-663) MDHRNLDPKTLKVSQLRRVLVENDVAFPANARKPVLVKLFEEKVRQRLQSSPEASKVRTSIQKVVKSGAKNADRKKTLKSKKLESSSSESKTVKDENVETNKRKREQISTDNEAKMQIQEEKSPKKKRKKRSSKANKPPESPPQSKSDGKATSADLTSELETVEELHKKDSSDDKPRVKELPKPELPNLKVSNEFLAQLNKELASAATENYDHSIKSTDLSSIRIETEEPVGPSTGAETRNESEVMENINLEVQPEVKEAKEELTKISETFDNQDEEDTSRLSSKKNIRSPKGRTRHFIANKTKRGIDIMKPFIAHLFIWLWNGAIFLSIICPILFGLWYREQRIQVGYCGHEKPLKSLAISAFPQTERVDSVLQAYRPNCLECPEHGICSSFMNVECEPGYEPKSSILETYGIIPFPKYCAKDESKEKEVDELVWKVNEYLKKKNAQHECGEGENLFESGETETKLYDIFSHSRPSWESQREFNDHWKNVLEILKKKDDIIWLPLDFETNGKREKSKSNNTNYIYRSTSKKWVTLQCHLEGDIQEYITKYGGSLFITLGVLFLIKKIQSTLDNYVQGEQIIEKLVKEAIDKLKDVKKNKGEEPFLTTVQLRATLLSDIPNIKEQNNLWAQTKEKIMKEQSENIELYLLEENGEIMTCWEWKE	no binding	
